The campaign covered roughly 340,000 compounds. About 170 (0.05%) were called active. The shares of active, inactive and inconclusive entries below differ from those in the screen. Calls follow the shape of the dose curve; as a rule, active = well fitted inhibition curve with a large enough effect in the signal ratio, with a control signal flat (not every such curve was filed as active); inconclusive = small, poorly fitted or top-dose-only effect, or effect the other way, or a change in a side signal; inactive = flat fitted curve, though single readings scatter; the % refers to the signal ratio. Potencies of inconclusive entries are doubtful fits and often do not repeat.
Assay: qHTS Assay to Find Inhibitors of Chronic Active B-Cell Receptor Signaling;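 as to activity change, negative = inhibition: plate controls were basal doxycycline-induced cells for no effect and cells given 10 µM MG132 for full effect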
Settings: ABC-DLBCL IkBa-CBG/CBR reporter, luminescence ratio (green luciferase fused to IkBa over red control in TMD8 lymphoma cells), 4 h; activity change, negative = inhibition: at 46.1 µM (top of the series)
Procedure, shortened: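 Compounds up to 46 uM were incubated four hours with TMD8 cells whose green CBG68 luciferase is fused to IkappaBalpha; red CBR luminescence normalised the signal, and concentration-effect curves were fitted to fusion, red and ratio data.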
Potency is read from the fitted curve at half-maximal effect.

Row | Compound | Potency | activity change, negative = inhibition
1 | Cc1ccc(NC(=O)C(=O)NCC2CCCO2)cc1C (configuration not stated) | inconclusive: 22.4 µM [falling, partial curve] | 
2 | CCN(CCCNC(=O)c1cc2cc3ccc(OC)cc3nc2s1)c1ccccc1 |  | inconclusive: 17.4%
3 | Cn1c(=O)c2c(nc(CN3CCOCC3)n2CCCc2ccccc2)n(C)c1=O | inconclusive: 7.31 µM [falling, partial curve] | 
4 | Cc1cc(C)n(C(=O)c2cc3sccc3[nH]2)n1 |  | inconclusive: 9.24%
5 | CCOc1cc(CNCc2ccccc2)ccc1OCc1ccc(Cl)cc1 |  | inconclusive: -20.9%
6 | COc1ccc(Cc2nc3c4c(ncn3n2)Oc2ccc3ccccc3c2C4c2ccc(OC)c(OC)c2)cc1 (configuration not stated) | inconclusive: 4.11 µM [falling, partial curve, poor fit] | 
7 | Cc1cc(C)c(C)c(OCCOCCN2CCN(C)CC2)c1 |  | inactive
8 | Cc1ccc(Cl)cc1NC(=O)C1C2CCC(O2)C1C(=O)O (configuration not stated) |  | inconclusive: 12.6%
9 | O=C(NCCCc1ccccc1)c1ccc(CS(=O)Cc2ccc(Cl)cc2)o1 (configuration not stated) |  | inconclusive: -7.72%
10 | CNC(=O)c1c(NC(=O)c2cccc(C)c2)sc2c1CCC2 | inconclusive: 11.2 µM [falling, partial curve] | 
11 | O=C1NC(Cc2c[nH]c3ccccc23)C(=O)N1Cc1cccc2ccccc12 (configuration not stated) |  | inactive
12 | Cc1ccc(NC(=O)CSc2nncs2)cc1Cl |  | inconclusive: 1.04%
13 | CC1(C)CC(CC(=O)O)(c2ccc(Cl)cc2)CCO1 (configuration not stated) | inconclusive: 14.6 µM [falling, partial curve, poor fit] | 
14 | CCCc1cc(C(=O)Nc2ccc(CC)cc2)no1 |  | inconclusive: -1.43%
15 | COc1cc(-c2c(NC(=O)c3ccco3)oc3c(C)cccc3c2=O)cc(OC)c1OC |  | inactive
16 | COc1ccccc1C(CNC(=O)c1oc2ccccc2c1C)N1CCCC1 (configuration not stated) |  | inconclusive: -4.12%
17 | Cc1sc2ncnc(N3CCC(C(=O)N(CC(C)C)c4nc5ccccc5s4)CC3)c2c1C |  | inconclusive: 12.9%
18 | COc1ccc(-c2cc3ccccc3n2CC(O)CN2CCC(C)CC2)cc1 (configuration not stated) |  | inactive
19 | CCc1ccc(NC(=O)c2ccc3c(c2)C(=O)N(Cc2ccco2)C3=O)cc1 | inconclusive: 18.4 µM [falling, single point] | 
20 | Cc1cc(C(F)F)n2nc(C(=O)Nc3ccccc3Br)nc2n1 |  | inconclusive: 1.69%
21 | CCOC(=O)C1=C(NC(=S)NC(=O)c2ccccc2)c2ccccc2CC1(C)C | inconclusive: 8.91 µM [rising, partial curve] | 
22 | CCOc1ccc2nc(SCC(=O)N3CCCc4ccccc43)sc2c1 | inconclusive: 35.5 µM [rising, partial curve, poor fit] | 
23 | CN(Cc1ccccc1)C(NC(=O)c1ccccc1)C(Cl)(Cl)Cl (configuration not stated) |  | inactive
24 | COc1ccccc1NC(=O)CSc1nnc(-c2ccccn2)n1Cc1ccco1 | inconclusive: 28.2 µM [falling, single point] | 
25 | Cc1nnc(SCC(=O)N2CCN(S(=O)(=O)c3ccc(Cl)cc3)CC2)[nH]c1=O |  | inconclusive: 2.15%
26 | CCN(CC)C(=O)CSc1nc2ccccc2c(=O)n1CCC(=O)N1CCN(c2ccccc2)CC1 |  | inactive

Some of the entries so far, as tab-separated lines:
Row	Compound	Potency	activity change, negative = inhibition
2	CCN(CCCNC(=O)c1cc2cc3ccc(OC)cc3nc2s1)c1ccccc1		inconclusive: 17.4%
3	Cn1c(=O)c2c(nc(CN3CCOCC3)n2CCCc2ccccc2)n(C)c1=O	inconclusive: 7.31 µM [falling, partial curve]	
4	Cc1cc(C)n(C(=O)c2cc3sccc3[nH]2)n1		inconclusive: 9.24%
5	CCOc1cc(CNCc2ccccc2)ccc1OCc1ccc(Cl)cc1		inconclusive: -20.9%
6	COc1ccc(Cc2nc3c4c(ncn3n2)Oc2ccc3ccccc3c2C4c2ccc(OC)c(OC)c2)cc1 (configuration not stated)	inconclusive: 4.11 µM [falling, partial curve, poor fit]	
7	Cc1cc(C)c(C)c(OCCOCCN2CCN(C)CC2)c1		inactive
8	Cc1ccc(Cl)cc1NC(=O)C1C2CCC(O2)C1C(=O)O (configuration not stated)		inconclusive: 12.6%
9	O=C(NCCCc1ccccc1)c1ccc(CS(=O)Cc2ccc(Cl)cc2)o1 (configuration not stated)		inconclusive: -7.72%
10	CNC(=O)c1c(NC(=O)c2cccc(C)c2)sc2c1CCC2	inconclusive: 11.2 µM [falling, partial curve]	
11	O=C1NC(Cc2c[nH]c3ccccc23)C(=O)N1Cc1cccc2ccccc12 (configuration not stated)		inactive
12	Cc1ccc(NC(=O)CSc2nncs2)cc1Cl		inconclusive: 1.04%
13	CC1(C)CC(CC(=O)O)(c2ccc(Cl)cc2)CCO1 (configuration not stated)	inconclusive: 14.6 µM [falling, partial curve, poor fit]	
14	CCCc1cc(C(=O)Nc2ccc(CC)cc2)no1		inconclusive: -1.43%
15	COc1cc(-c2c(NC(=O)c3ccco3)oc3c(C)cccc3c2=O)cc(OC)c1OC		inactive
16	COc1ccccc1C(CNC(=O)c1oc2ccccc2c1C)N1CCCC1 (configuration not stated)		inconclusive: -4.12%
17	Cc1sc2ncnc(N3CCC(C(=O)N(CC(C)C)c4nc5ccccc5s4)CC3)c2c1C		inconclusive: 12.9%

(listing goes on)

Row | Compound | Potency | activity change, negative = inhibition
27 | Cc1ccc2oc(-c3cccc(NC(=O)Cn4cnc5c(=O)n(C)c(=O)n(C)c54)c3)nc2c1 |  | inconclusive: 6.62%
28 | COc1ccc(NC(=O)CSc2nnc(N)n2CC(=O)Nc2ccc(OC)cc2)cc1 |  | inconclusive: 0.965%
29 | Cn1ccc(C(=O)OCC(=O)Nc2cccc3ccccc23)n1 | inconclusive: 15.8 µM [falling, single point] | 
30 | Cc1ccc(CNC(=O)CCS(=O)(=O)c2ccc3c(c2)CC(C)N3C(=O)C2CC2)o1 (configuration not stated) |  | inconclusive: -44.8%
31 | COC(=O)c1cc(Cn2nc(C(=O)O)c3ccccc3c2=O)oc1C |  | inconclusive: -0.711%
32 | C[C@H](NC(=O)c1ccc2c(c1)OCO2)c1nnc2ccccn12 | inconclusive: 15.8 µM [falling, partial curve, poor fit] | 
33 | C=CCn1nnc2sc3c(c2c1=O)CCC(C)C3 (configuration not stated) |  | inconclusive: -26.2%
34 | CCN(CC(=O)Nc1c(F)cccc1F)C(=O)c1ccc2c(c1)OCO2 |  | inconclusive: 7.03%
35 | Cc1cccc(/C=N/NC(=O)c2cccc([N+](=O)[O-])c2)n1 |  | inactive
36 | Cc1cc(-c2nnc(CCC(=O)N(C)C(C)c3cccs3)o2)no1 (configuration not stated) |  | inconclusive: 13.5%
37 | CN(CC(=O)Nc1ccccc1Cl)CC(=O)Nc1ccccc1[N+](=O)[O-] |  | inconclusive: 1.25%
38 | O=C(NC(=S)NNC(=O)c1cccs1)c1ccco1 | inconclusive: 35.5 µM [rising, single point] | 
39 | Nc1cc(-c2ccccc2)ccc1O | inconclusive: 7.94 µM [falling, partial curve, poor fit] | 
40 | Cc1nnc2ccc(-c3cccc(NC(=O)c4ccc(Br)o4)c3)nn12 | inconclusive: 3.98 µM [falling, partial curve, poor fit] | 
41 | COc1ccccc1C(=O)NCC(=O)Nc1ccccc1 | inconclusive: 29.1 µM [falling, partial curve, poor fit] | 
42 | CCCCCC(O)c1cccc(OCc2ccc3ccccc3n2)c1 (configuration not stated) |  | inconclusive: 0.318%
43 | Oc1cccc(C=NCc2ccccc2)c1O |  | inconclusive: 5.69%
44 | CCNS(=O)(=O)c1ccc(C(=O)OCC(=O)N2CCCc3ccccc32)cc1 |  | inconclusive: -1.1%
45 | CCOc1ccc(C(=O)CCC(=O)NCC(=O)Nc2c(C)cccc2C)cc1 |  | inactive
46 | COCCn1nnnc1C(c1cc2c(C)cc(C)cc2[nH]c1=O)N1CCCCCC1 (configuration not stated) |  | inconclusive: 7.75%
47 | Cn1c(CN2CCCCC2)nc2cc(NC(=O)c3ccc(F)cc3)ccc21 | inconclusive: 25.1 µM [falling, single point] | 
48 | Cc1ccc(NC(=O)c2ccc(Cl)c(S(=O)(=O)NCC3CCCO3)c2)c(O)c1 (configuration not stated) |  | inconclusive: -0.241%
49 | CCOC(=O)c1c(C)[nH]c(C)c1C(=O)COC(=O)CNC(=O)C1CCCCC1 |  | inconclusive: 1.58%
50 | O=C(CCn1nnc2ccccc21)Nc1nnc(Cc2ccccc2)s1 | inconclusive: 1.3 µM [falling, partial curve] | 
51 | CS(=O)(=O)N(Cc1ccco1)Cc1ccccc1Cl |  | inconclusive: 3.2%
52 | CCOc1ccc(Nc2cc3n(c(=O)n2)CCc2cc(OC)c(OC)cc2-3)cc1 | inconclusive: 25.1 µM [falling, single point] | 

Row | Compound | Potency | activity change, negative = inhibition
53 | CC[C@]12c3[nH]c4cc(-c5ccco5)ccc4c3CCN1C(=O)[C@@H](CC(=O)NCc1cccc(C(F)(F)F)c1)C[C@@H]2C(=O)N1CCN(C(=O)c2ccco2)CC1 | inconclusive: 32.6 µM [falling, partial curve, poor fit] | 
54 | CCN(CC)S(=O)(=O)c1ccc(C(=O)NCc2n[nH]c(=S)n2-c2ccc(Cl)c(Cl)c2)cc1 |  | inconclusive: 10%
55 | C/C(=N\NC(=O)c1cccc([N+](=O)[O-])c1)c1cccc(NC(=O)C2CC2)c1 |  | inactive
56 | CCCn1c(C(O)c2ccc(OC)cc2)nc2ccccc21 (configuration not stated) |  | inconclusive: 19.2%
57 | C=CCNC(=O)c1ccc(-c2nc(-c3ccccc3)cs2)cc1 |  | inconclusive: 7.32%
58 | COc1cccc(-c2coc3c(C)c4oc(=O)c(CCC(=O)O)c(C)c4cc23)c1 |  | inconclusive: -7.1%
59 | Nc1nonc1C(=O)N/N=C/c1ccc(Br)o1 |  | inactive
60 | COc1cc(N(C)C)c([N+](=O)[O-])cc1C(=O)N1CCOCC1 |  | inactive
61 | Cc1occc1C(=O)NNC(=S)Nc1cccc([N+](=O)[O-])c1 | inconclusive: 25.1 µM [falling, single point] | 
62 | O=C1C=C(Nc2ccccc2)C(=O)c2ccccc21 | inconclusive: 3.55 µM [falling, full curve] | 
63 | Nc1nnc(CC(=O)N/N=C/c2ccccc2OCc2ccc(F)cc2)s1 |  | inconclusive: -0.505%
64 | COc1ccc([N+](=O)[O-])cc1N(CC(=O)NC(C(C)C)C(C)C)S(C)(=O)=O |  | inconclusive: 18.6%
65 | Cc1cc(O)c(C(C)C)cc1C1(c2cc(C(C)C)c(O)cc2C)OC(=O)c2ccccc21 |  | inconclusive: 27.3%
66 | CCOc1ccc(C2c3[nH]c4ccccc4c3CCN2CCCn2cccn2)cc1 (configuration not stated) | inconclusive: 12.6 µM [falling, partial curve, poor fit] | 
67 | N#C/C(=C1/CCCCCN1)c1nc2ccccc2s1 |  | inconclusive: -7.53%
68 | COCCNC(=O)Cn1c(=O)n(CCCC(=O)NCc2ccc3c(c2)OCO3)c(=O)c2sccc21 |  | inactive
69 | CC(C)NC(=O)N(C)C[C@H]1Oc2c(NC(=O)Nc3ccc(C(F)(F)F)cc3)cccc2C(=O)N([C@H](C)CO)C[C@@H]1C |  | inconclusive: -6.49%
70 | CCN(Cc1ccccc1)C(=O)COC(=O)[C@@H]1CCCN1C(=O)c1cccs1 |  | inconclusive: 6.63%
71 | Cc1c(O)cc2c(c1O)C(=O)CC(c1ccccc1)O2 (configuration not stated) |  | inactive
72 | Cc1ccc(OCCN(C)C(=O)C2CCC(=O)N(Cc3ccccc3F)C2)cc1 (configuration not stated) |  | inactive
73 | COc1ccc(CN2C(=O)Cc3c2nc(N)c2c(N)nc(N4CCCCC4)c(C#N)c32)cc1 |  | inconclusive: 9.76%
74 | CCN(CC)c1ccc(C(=O)OCC(=O)Nc2cccc(S(=O)(=O)NC3=NCCCCC3)c2)cc1 |  | inconclusive: -13.3%
75 | Cc1cc2ncn(/N=C/c3ccc([N+](=O)[O-])o3)c2cc1C |  | inconclusive: -14.5%
76 | CCCCCCN1C(=O)CC(NC(=O)OCC2c3ccccc3-c3ccccc32)C/C=C\C1C(C)C (configuration not stated) |  | inconclusive: -0.145%
77 | O=C(Nc1cccc(S(=O)(=O)N2CCOCC2)c1)c1cc(=O)[nH]c2ccccc12 |  | inconclusive: -2.17%

Reference: PubChem BioAssay AID493014 (National Center for Advancing Translational Sciences (NCATS), 2011)
